Results: the supplement of paper PMC10849652
The other results are listed elsewhere or left out.

The chains behind the UniProt entries cited, without tags or fusion partners. Where a name states a change or a piece, a line headed by the entry shows the natural chain unless it says otherwise.
UniProt Q9H6E4: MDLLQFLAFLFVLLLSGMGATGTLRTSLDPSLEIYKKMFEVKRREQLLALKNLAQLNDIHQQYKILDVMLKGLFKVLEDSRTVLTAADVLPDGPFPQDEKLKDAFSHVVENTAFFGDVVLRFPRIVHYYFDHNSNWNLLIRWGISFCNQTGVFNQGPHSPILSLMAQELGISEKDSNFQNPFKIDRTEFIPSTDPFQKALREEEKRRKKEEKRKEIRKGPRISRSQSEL
UniProt O75081: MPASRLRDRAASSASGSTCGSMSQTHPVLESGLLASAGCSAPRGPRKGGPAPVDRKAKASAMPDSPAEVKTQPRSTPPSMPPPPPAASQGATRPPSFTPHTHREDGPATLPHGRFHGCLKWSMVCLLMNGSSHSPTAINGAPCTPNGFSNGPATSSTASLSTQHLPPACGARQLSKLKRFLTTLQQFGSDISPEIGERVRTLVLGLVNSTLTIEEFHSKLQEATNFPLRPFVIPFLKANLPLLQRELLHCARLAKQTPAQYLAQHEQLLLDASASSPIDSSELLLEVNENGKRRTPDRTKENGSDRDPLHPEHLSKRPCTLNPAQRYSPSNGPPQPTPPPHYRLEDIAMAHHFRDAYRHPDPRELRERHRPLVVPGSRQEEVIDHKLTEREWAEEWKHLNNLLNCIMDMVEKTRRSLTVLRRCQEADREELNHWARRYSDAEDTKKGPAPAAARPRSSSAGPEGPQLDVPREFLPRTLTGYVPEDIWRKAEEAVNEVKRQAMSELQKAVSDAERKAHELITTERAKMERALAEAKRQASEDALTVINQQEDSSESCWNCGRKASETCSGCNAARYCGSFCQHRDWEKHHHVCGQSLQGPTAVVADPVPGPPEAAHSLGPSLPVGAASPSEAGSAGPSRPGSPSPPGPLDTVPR
UniProt Q12834, whole entry, looked up: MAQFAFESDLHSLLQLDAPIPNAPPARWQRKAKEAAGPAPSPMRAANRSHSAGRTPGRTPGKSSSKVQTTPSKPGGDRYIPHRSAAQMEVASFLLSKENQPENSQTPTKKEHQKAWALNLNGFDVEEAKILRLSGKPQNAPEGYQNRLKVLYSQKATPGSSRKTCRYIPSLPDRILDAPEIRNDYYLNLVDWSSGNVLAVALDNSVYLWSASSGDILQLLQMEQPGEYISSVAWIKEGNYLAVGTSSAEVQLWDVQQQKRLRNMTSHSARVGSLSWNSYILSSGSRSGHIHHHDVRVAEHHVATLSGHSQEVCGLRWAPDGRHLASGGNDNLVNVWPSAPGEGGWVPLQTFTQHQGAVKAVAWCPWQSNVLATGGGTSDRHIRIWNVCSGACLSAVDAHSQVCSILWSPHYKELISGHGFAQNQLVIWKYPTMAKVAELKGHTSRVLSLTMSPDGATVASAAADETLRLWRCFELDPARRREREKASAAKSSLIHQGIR
UniProt Q9Y5K6, whole entry, looked up: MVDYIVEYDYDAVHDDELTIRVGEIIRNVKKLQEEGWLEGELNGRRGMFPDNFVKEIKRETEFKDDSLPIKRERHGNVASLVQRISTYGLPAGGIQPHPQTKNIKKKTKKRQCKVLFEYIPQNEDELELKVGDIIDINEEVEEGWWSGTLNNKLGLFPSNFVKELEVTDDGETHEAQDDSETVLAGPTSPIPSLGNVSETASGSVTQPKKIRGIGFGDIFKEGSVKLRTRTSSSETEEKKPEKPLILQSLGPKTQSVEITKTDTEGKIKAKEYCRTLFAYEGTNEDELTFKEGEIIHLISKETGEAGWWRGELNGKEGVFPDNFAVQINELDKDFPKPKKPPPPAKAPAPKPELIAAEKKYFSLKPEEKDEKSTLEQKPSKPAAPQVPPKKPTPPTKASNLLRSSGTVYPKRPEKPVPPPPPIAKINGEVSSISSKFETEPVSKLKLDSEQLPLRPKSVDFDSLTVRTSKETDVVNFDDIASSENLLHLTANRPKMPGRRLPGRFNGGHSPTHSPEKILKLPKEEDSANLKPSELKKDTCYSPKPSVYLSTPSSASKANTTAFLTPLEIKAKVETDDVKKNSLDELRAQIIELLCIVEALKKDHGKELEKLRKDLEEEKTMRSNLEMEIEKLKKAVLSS
UniProt Q92526, whole entry, looked up: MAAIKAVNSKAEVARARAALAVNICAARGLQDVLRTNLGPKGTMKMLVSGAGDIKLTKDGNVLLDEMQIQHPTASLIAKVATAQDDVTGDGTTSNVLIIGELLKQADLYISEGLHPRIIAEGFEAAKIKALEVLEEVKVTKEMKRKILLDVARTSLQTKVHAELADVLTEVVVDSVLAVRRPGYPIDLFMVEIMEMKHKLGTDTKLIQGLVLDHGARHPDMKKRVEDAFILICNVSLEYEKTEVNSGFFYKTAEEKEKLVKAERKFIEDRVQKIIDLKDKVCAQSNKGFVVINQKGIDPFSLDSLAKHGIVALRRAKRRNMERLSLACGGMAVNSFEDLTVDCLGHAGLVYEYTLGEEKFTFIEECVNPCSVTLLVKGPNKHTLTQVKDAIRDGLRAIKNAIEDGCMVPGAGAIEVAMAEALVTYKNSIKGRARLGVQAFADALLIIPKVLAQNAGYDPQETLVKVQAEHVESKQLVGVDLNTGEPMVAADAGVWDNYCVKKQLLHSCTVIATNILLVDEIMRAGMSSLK
UniProt Q6PK04: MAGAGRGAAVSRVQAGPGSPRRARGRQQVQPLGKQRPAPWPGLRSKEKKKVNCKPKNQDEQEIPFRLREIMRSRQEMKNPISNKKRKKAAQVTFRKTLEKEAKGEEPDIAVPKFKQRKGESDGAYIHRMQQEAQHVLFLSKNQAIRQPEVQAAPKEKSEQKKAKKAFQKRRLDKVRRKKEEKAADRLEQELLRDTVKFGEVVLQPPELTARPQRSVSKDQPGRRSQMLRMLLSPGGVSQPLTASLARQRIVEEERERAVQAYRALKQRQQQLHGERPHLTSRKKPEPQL
UniProt Q96F63: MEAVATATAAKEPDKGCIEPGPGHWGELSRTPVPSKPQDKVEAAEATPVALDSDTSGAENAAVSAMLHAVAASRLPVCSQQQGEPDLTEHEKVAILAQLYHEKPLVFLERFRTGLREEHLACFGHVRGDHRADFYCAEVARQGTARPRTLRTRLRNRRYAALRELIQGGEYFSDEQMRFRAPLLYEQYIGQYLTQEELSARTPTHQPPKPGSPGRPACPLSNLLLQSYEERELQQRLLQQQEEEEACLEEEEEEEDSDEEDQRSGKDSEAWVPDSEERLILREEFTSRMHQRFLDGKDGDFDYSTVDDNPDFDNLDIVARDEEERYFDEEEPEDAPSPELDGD
UniProt O14618: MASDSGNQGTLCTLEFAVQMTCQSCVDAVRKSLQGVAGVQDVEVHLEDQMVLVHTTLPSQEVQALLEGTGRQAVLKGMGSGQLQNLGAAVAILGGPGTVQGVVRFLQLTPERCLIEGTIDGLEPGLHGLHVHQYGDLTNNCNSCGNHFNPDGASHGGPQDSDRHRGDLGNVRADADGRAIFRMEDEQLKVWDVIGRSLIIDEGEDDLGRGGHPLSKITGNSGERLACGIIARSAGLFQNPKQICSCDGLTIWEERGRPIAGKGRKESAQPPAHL
UniProt P04040: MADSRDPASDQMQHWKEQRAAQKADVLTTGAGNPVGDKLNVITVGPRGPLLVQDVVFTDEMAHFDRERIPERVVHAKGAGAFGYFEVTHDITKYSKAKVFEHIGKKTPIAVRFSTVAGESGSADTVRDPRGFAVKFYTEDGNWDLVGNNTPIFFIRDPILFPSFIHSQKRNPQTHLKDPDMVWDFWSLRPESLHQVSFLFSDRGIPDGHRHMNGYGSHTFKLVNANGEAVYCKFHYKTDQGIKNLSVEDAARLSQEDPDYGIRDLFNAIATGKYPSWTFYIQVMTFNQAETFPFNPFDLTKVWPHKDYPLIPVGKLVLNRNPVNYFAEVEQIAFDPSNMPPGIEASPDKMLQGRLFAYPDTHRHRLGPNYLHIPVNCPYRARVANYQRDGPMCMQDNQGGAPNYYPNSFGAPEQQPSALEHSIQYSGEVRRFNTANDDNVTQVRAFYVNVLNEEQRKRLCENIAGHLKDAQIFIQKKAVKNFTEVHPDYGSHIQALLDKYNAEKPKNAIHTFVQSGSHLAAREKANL
UniProt Q8ND76: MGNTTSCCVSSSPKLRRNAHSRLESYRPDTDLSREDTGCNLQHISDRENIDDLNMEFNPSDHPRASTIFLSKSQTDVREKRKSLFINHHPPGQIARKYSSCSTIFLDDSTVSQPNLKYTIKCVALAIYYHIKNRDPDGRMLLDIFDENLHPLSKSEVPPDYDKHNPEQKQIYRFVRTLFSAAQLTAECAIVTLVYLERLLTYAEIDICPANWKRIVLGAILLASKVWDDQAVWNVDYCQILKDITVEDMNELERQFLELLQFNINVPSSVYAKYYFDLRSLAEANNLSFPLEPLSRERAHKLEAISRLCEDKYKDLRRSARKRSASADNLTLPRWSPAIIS
UniProt O60563, whole entry, looked up: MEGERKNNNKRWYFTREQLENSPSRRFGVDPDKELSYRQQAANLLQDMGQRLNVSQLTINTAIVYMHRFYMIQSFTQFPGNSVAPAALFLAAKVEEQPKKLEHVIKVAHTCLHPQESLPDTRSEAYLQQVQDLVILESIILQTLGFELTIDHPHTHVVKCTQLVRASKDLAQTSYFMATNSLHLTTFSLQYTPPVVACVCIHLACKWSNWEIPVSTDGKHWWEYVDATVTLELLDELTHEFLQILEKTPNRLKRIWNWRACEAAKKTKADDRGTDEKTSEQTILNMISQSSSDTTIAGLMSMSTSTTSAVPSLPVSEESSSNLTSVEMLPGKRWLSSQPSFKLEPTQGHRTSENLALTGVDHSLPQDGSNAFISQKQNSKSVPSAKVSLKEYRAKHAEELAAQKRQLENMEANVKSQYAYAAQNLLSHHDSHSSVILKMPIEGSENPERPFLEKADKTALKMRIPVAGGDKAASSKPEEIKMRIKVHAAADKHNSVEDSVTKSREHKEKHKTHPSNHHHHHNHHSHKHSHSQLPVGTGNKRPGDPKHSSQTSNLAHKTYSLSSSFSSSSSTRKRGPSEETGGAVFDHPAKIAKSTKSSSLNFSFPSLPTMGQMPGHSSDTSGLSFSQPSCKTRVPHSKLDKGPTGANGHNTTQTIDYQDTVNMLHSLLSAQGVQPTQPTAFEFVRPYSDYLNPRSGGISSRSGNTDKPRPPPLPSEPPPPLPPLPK
UniProt P45973, whole entry, looked up: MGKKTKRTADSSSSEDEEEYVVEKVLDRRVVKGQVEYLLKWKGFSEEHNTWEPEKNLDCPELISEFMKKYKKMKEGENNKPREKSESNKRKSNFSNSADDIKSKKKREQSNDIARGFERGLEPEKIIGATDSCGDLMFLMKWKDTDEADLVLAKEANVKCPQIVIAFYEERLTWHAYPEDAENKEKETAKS
UniProt P35520: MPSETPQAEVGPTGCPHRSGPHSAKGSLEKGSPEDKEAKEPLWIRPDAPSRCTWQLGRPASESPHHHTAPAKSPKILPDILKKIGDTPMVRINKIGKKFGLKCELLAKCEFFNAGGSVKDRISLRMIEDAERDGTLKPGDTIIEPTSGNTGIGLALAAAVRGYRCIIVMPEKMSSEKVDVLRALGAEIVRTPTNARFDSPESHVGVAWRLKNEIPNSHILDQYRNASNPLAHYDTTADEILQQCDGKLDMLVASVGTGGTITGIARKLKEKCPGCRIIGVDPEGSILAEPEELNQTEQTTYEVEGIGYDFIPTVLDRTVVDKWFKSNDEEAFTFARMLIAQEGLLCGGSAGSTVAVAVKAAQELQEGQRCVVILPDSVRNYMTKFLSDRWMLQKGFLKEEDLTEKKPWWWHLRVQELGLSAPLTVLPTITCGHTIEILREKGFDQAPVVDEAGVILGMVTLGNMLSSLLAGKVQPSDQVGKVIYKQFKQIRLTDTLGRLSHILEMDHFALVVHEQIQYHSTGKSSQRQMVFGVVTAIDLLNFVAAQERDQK
UniProt Q9BSQ5: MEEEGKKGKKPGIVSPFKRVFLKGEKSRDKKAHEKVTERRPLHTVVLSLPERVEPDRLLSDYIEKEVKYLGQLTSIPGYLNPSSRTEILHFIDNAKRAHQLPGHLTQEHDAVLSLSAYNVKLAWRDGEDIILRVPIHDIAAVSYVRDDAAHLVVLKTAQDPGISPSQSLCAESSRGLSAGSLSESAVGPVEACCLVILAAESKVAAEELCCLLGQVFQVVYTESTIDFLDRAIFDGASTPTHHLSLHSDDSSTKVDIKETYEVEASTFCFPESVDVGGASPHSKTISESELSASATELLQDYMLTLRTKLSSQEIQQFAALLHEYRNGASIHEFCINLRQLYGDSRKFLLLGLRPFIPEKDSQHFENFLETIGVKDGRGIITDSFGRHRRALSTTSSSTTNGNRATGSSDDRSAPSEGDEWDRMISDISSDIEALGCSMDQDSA
UniProt P42574: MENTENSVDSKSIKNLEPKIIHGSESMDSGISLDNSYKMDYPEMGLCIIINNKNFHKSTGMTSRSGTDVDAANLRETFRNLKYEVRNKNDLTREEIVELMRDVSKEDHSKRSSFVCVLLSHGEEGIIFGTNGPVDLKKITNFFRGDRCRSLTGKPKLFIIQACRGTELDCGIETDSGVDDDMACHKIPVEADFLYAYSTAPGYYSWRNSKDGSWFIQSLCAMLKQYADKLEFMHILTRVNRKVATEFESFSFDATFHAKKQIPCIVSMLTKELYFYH

Columns and labels:
Assay in all cases: log2 fold change, soluble protein after heating vs DMSO (PISA); higher = thermal stabilisation; K562 cells, 10 uM, 30 min; active = over 0.2 and 3.5 SD of the protein, either way, in both replicates (recomputed)
saracatinib = compound: CN1CCN(CCOc2cc(OC3CCOCC3)c3c(Nc4c(Cl)ccc5c4OCO5)ncnc3c2)CC1 [saracatinib]
Procedure, shortened: (§1)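 Values are thermal stability changes relative to control samples and are taken from duplicates. They are stated as log2 fold changes. Before quantification by TMTpro 16plex LC-MS/MS with equalised channel sums, K562 cells at 2×10^6 cells/mL were treated with 10 μM compound for 30 min, heated in aliquots for 3 min across 48°C-58°C, pooled, extracted in PBS with 0.5% NP-40 at 4°C, and centrifuged at 21,000xg for 90 min to give the soluble supernatant.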

sotrastaurin = compound: CN1CCN(c2nc(C3=C(c4c[nH]c5ccccc45)C(=O)NC3=O)c3ccccc3n2)CC1 [sotrastaurin]
Procedure, shortened: as §1

alvocidib = compound: CN1CC[C@H](c2c(O)cc(O)c3c(=O)cc(-c4ccccc4Cl)oc23)[C@H](O)C1 [alvocidib]
Procedure, shortened: as §1

Tubastatin A = compound: CN1CCc2c(c3ccccc3n2Cc2ccc(C(=O)NO)cc2)C1 [Tubastatin A]
Procedure, shortened: as §1

[1] = compound: CNC(=O)C1=CC=CC=C1NC2=NC(=NC=C2Cl)NC3=C(C=C(C=C3)N4CCOCC4)OC
Procedure, shortened: as §1

defactinib = compound: CNC(=O)c1ccc(Nc2ncc(C(F)(F)F)c(NCc3nccnc3N(C)S(C)(=O)=O)n2)cc1 [defactinib]
Procedure, shortened: as §1

rucaparib = compound: CNCc1ccc(-c2[nH]c3cc(F)cc4c3c2CCNC4=O)cc1 [rucaparib]
Procedure, shortened: as §1

[2] = compound: CNc1nc(-c2ccc3c(N)n[nH]c3c2)cc(N2C[C@@H](C(=O)NC3CCCCC3)CC[C@H]2C)n1
Procedure, shortened: as §1

encorafenib = compound: COC(=O)N[C@@H](C)CNc1nccc(-c2cn(C(C)C)nc2-c2cc(Cl)cc(NS(C)(=O)=O)c2F)n1 [encorafenib]
Procedure, shortened: as §1

[3] = compound: COC(=O)[C@H](CCSC)NC(=O)C1=C(C=C(C=C1)NC[C@H](CS)N)C2=CC=CC=C2
Procedure, shortened: as §1

Measured: log2 fold change

CCDC134 (UniProt Q9H6E4)
inactive: saracatinib -0.035 | sotrastaurin -0.049 | alvocidib 0.029 | Tubastatin A 0.028 | [1] 0.025 | defactinib 0.03 | rucaparib -0.004 | [2] 0.006 | encorafenib 0.033 | [3] -0.002

CDC23 (UniProt Q9UJX2)
inactive: saracatinib -0.012 | sotrastaurin 0.01 | alvocidib 0.004 | Tubastatin A 0.11 | [1] 0.054 | defactinib -0.029 | rucaparib 0.049 | [2] -0.016 | encorafenib 0.028 | [3] -0.025

CCDC85B (UniProt Q15834)
inactive: saracatinib -0.106 | sotrastaurin -0.327 | alvocidib 0.015 | Tubastatin A 0.021 | [1] -0.182 | defactinib 0.009 | rucaparib -0.103 | [2] 0.056 | encorafenib -0.066 | [3] 0.016

CBFA2T3 (UniProt O75081)
inactive: saracatinib -0.023 | sotrastaurin 0.129 | alvocidib -0.081 | Tubastatin A 0.14 | [1] -0.035 | defactinib 0.061 | rucaparib -0.035 | [2] -0.047 | encorafenib 0.035 | [3] 0.001

CD80 (UniProt P33681)
inactive: saracatinib 0.087 | sotrastaurin -0.038 | alvocidib 0.014 | Tubastatin A -0.011 | [1] 0.009 | rucaparib 0.115 | [2] 0.057 | encorafenib -0.066

CD97 (UniProt P48960)
inactive: saracatinib -0.03 | sotrastaurin 0.066 | alvocidib 0.008 | Tubastatin A 0.031 | [1] -0.079 | defactinib -0.108 | rucaparib 0.011 | [2] -0.047 | encorafenib -0.043 | [3] 0.018

CCT2 (UniProt P78371)
inactive: saracatinib -0.004 | sotrastaurin -0.003 | alvocidib 0.01 | Tubastatin A -0.001 | [1] -0.037 | defactinib 0.009 | rucaparib -0.037 | [2] 0.013 | encorafenib 0.02 | [3] -0.014

CDC20 (UniProt Q12834)
inactive: saracatinib -0.076 | sotrastaurin -0.052 | alvocidib -0.067 | Tubastatin A 0.124 | [1] 0.042 | defactinib -0.078 | [2] 0.033 | [3] 0.002

CD2AP (UniProt Q9Y5K6)
inactive: saracatinib -0.004 | sotrastaurin 0.017 | alvocidib -0.034 | Tubastatin A -0.02 | [1] 0.011 | defactinib -0.031 | rucaparib -0.001 | [2] 0 | encorafenib 0.009 | [3] 0.027

CCDC117 (UniProt Q8IWD4)
inactive: saracatinib 0 | sotrastaurin 0.041 | alvocidib -0.04 | Tubastatin A 0.035 | [1] -0.077 | defactinib -0.112 | rucaparib 0.001 | [2] -0.01 | encorafenib 0.015 | [3] 0.085

CCT6B isoform 3 (UniProt Q92526)
inactive: saracatinib -0.07 | sotrastaurin 0.261 | alvocidib 0.18 | Tubastatin A 0.213 | [1] -0.256 | defactinib -0.008 | [2] 0.191 | [3] -0.109

CCDC137 (UniProt Q6PK04)
inactive: saracatinib 0.047 | sotrastaurin 0.006 | alvocidib 0.579 | Tubastatin A 0.177 | [1] -0.025 | defactinib 0.685 | rucaparib 0.56 | [2] 0.118 | encorafenib 0.083 | [3] -0.101

CDC27 isoform 2 (UniProt P30260)
inactive: saracatinib -0.038 | sotrastaurin -0.03 | alvocidib -0.006 | Tubastatin A 0.034 | [1] 0.035 | defactinib -0.014 | rucaparib 0.019 | [2] 0.025 | encorafenib 0.065 | [3] -0.005

CCDC97 (UniProt Q96F63)
inactive: saracatinib 0.144 | sotrastaurin -0.166 | alvocidib -0.281 | Tubastatin A -0.017 | [1] -0.065 | defactinib -0.103 | rucaparib 0.062 | [2] -0.141 | encorafenib -0.014 | [3] -0.048

CCS (UniProt O14618)
inactive: saracatinib 0 | sotrastaurin 0.101 | alvocidib -0.052 | Tubastatin A -0.057 | [1] -0.015 | defactinib -0.018 | rucaparib -0.014 | [2] 0.01 | encorafenib -0.005 | [3] 0.039

CAT (UniProt P04040)
inactive: saracatinib -0.001 | sotrastaurin 0.043 | alvocidib 0.005 | Tubastatin A -0.004 | [1] -0.046 | defactinib -0.015 | rucaparib -0.037 | [2] -0.022 | encorafenib -0.037 | [3] 0.014

CCNY (UniProt Q8ND76)
inactive: saracatinib -0.034 | sotrastaurin -0.034 | alvocidib 0.168 | Tubastatin A -0.03 | [1] -0.013 | defactinib -0.02 | [2] 0.001 | [3] -0.024

CBARP (UniProt Q8N350)
inactive: saracatinib 0.109 | sotrastaurin 0.026 | alvocidib -0.046 | Tubastatin A 0.188 | defactinib 0.005 | rucaparib 0.118 | [2] 0.103 | encorafenib -0.172 | [3] 0.021

CD47 (UniProt Q08722)
inactive: saracatinib -0.023 | sotrastaurin 0.033 | alvocidib 0.04 | Tubastatin A -0.045 | [1] -0.062 | defactinib -0.013 | rucaparib -0.079 | [2] 0.016 | encorafenib 0.027 | [3] 0.007

CCNB2 (UniProt O95067)
inactive: saracatinib 0.008 | sotrastaurin -0.131 | alvocidib -0.05 | Tubastatin A 0.087 | [1] 0.014 | defactinib -0.113 | rucaparib -0.056 | [2] 0.008 | encorafenib -0.051 | [3] -0.022

CCNT1 (UniProt O60563)
inactive: saracatinib -0.005 | sotrastaurin -0.173 | Tubastatin A 0.075 | [1] -0.086 | defactinib -0.213 | rucaparib 0.044 | [2] 0.043 | encorafenib 0.163 | [3] 0.002

CBX5 (UniProt P45973)
inactive: saracatinib -0.04 | sotrastaurin -0.001 | Tubastatin A 0.078 | [1] -0.026 | defactinib -0.205 | rucaparib -0.022 | [2] 0.043 | encorafenib 0.009 | [3] -0.012

CBS (UniProt P35520)
inactive: saracatinib -0.009 | sotrastaurin 0.011 | Tubastatin A -0.069 | [1] -0.021 | defactinib 0.003 | rucaparib -0.061 | [2] -0.03 | encorafenib -0.001 | [3] -0.013

5 consecutive entries out of the list so far:
CCNY (UniProt Q8ND76)
inactive: saracatinib -0.034 | sotrastaurin -0.034 | alvocidib 0.168 | Tubastatin A -0.03 | [1] -0.013 | defactinib -0.02 | [2] 0.001 | [3] -0.024

CBARP (UniProt Q8N350)
inactive: saracatinib 0.109 | sotrastaurin 0.026 | alvocidib -0.046 | Tubastatin A 0.188 | defactinib 0.005 | rucaparib 0.118 | [2] 0.103 | encorafenib -0.172 | [3] 0.021

CD47 (UniProt Q08722)
inactive: saracatinib -0.023 | sotrastaurin 0.033 | alvocidib 0.04 | Tubastatin A -0.045 | [1] -0.062 | defactinib -0.013 | rucaparib -0.079 | [2] 0.016 | encorafenib 0.027 | [3] 0.007

CCNB2 (UniProt O95067)
inactive: saracatinib 0.008 | sotrastaurin -0.131 | alvocidib -0.05 | Tubastatin A 0.087 | [1] 0.014 | defactinib -0.113 | rucaparib -0.056 | [2] 0.008 | encorafenib -0.051 | [3] -0.022

CCNT1 (UniProt O60563)
inactive: saracatinib -0.005 | sotrastaurin -0.173 | Tubastatin A 0.075 | [1] -0.086 | defactinib -0.213 | rucaparib 0.044 | [2] 0.043 | encorafenib 0.163 | [3] 0.002

(list continues)

CASTOR2 (UniProt A6NHX0)
inactive: saracatinib 0.042 | sotrastaurin 0.039 | Tubastatin A 0.036 | [1] -0.082 | defactinib -0.092 | rucaparib -0.048 | [2] 0.032 | encorafenib 0.04 | [3] 0

CD81 (UniProt P60033)
inactive: saracatinib 0.163 | sotrastaurin 0.103 | Tubastatin A -0.064 | [1] -0.029 | defactinib -0.053 | rucaparib -0.152 | [2] 0.207 | encorafenib 0.199 | [3] 0

CCNDBP1 (UniProt O95273)
inactive: saracatinib 0.078 | sotrastaurin -0.209 | Tubastatin A 0.001 | [1] 0.115 | defactinib -0.107 | rucaparib -0.002 | [2] -0.04 | encorafenib 0.062 | [3] -0.027

CCM2 isoform 2 (UniProt Q9BSQ5)
inactive: saracatinib -0.01 | sotrastaurin 0.056 | Tubastatin A 0.073 | [1] -0.061 | defactinib -0.107 | rucaparib 0.03 | [2] 0.087 | encorafenib 0.118 | [3] -0.033

CASP3 (UniProt P42574)
inactive: saracatinib 0.107 | sotrastaurin 0.048 | Tubastatin A 0.066 | [1] -0.024 | defactinib -0.002 | rucaparib -0.062 | [2] 0.001 | encorafenib -0.014 | [3] -0.004
